Reference: patent US20140017701A1, “CHIMERIC PDK1 KINASES” (priority 2011, published 2014)
These are yes or no findings as the source states them, for the method shown. Some binding calls cover weakened binding; strength is not graded here. Where a sequence is shown, tags or fusion partners need not be part of it.

Biological target: T1, His6-tagged PKCι Δ223 (human)
T1 sequence: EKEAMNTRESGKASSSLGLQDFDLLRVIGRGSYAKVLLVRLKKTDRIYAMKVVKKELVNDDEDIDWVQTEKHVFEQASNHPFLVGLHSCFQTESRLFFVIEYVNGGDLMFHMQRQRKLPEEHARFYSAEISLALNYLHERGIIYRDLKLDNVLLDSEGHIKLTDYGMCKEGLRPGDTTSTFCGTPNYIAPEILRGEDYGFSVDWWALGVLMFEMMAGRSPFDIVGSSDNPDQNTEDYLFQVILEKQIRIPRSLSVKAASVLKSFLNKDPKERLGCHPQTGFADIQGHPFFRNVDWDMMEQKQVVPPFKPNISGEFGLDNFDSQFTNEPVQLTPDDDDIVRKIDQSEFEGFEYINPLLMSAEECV
Assay: AlphaScreen displacement of GST-PSR-C1 from His-PKCι Δ223; binding inferred from displacement

binding: binds
Binder: VGNQLPFIGFTYFRENL [ROCK-HM, HM polypeptide derived from the AGC kinase ROCK]
